No constants are given. Whether binding was seen depends on the method and setting. Binding seen in cells or lysates may run through a third protein. Some binding calls cover weakened binding; strength is not graded here.
How the values were obtained:
[1] = target: Importin-7 (human (endogenous in MDA-MB-231, MCF-7, MDA-MB-453)) (UniProt O95373); assay: co-IP; endogenous proteins in lysates of MDA-MB-453 cells; cells androgen-starved (CDS-FBS, 2 d) then enzalutamide (20 uM), DHT (10 nM) or R1881 (10 nM) for 24 h (Fig. 4F), or transfected with Importin-7, USP22 or control siRNAs for 48 h (Fig. 4G, H); immunoblot
[2] = target: Importin-7 (human (endogenous in MDA-MB-231, MCF-7, MDA-MB-453)) (UniProt O95373); assay: co-IP; endogenous proteins in lysates of MDA-MB-231 and MCF-7 cells; precipitated with Importin-7 antibody (Fig. 4A) or AR antibody (Fig. 4B), immunoblot
[3] = target: androgen receptor (human (endogenous in MDA-MB-231, MCF-7, MDA-MB-453)) (UniProt P10275); assay: co-IP; endogenous proteins in lysates of MDA-MB-453 cells; cells androgen-starved (CDS-FBS, 2 d) then enzalutamide (20 uM), DHT (10 nM) or R1881 (10 nM) for 24 h (Fig. 4F), or transfected with Importin-7, USP22 or control siRNAs for 48 h (Fig. 4G, H); immunoblot

Protein sequences, listed by entry. Tags and fused reporters are not part of them.
UniProt O95373: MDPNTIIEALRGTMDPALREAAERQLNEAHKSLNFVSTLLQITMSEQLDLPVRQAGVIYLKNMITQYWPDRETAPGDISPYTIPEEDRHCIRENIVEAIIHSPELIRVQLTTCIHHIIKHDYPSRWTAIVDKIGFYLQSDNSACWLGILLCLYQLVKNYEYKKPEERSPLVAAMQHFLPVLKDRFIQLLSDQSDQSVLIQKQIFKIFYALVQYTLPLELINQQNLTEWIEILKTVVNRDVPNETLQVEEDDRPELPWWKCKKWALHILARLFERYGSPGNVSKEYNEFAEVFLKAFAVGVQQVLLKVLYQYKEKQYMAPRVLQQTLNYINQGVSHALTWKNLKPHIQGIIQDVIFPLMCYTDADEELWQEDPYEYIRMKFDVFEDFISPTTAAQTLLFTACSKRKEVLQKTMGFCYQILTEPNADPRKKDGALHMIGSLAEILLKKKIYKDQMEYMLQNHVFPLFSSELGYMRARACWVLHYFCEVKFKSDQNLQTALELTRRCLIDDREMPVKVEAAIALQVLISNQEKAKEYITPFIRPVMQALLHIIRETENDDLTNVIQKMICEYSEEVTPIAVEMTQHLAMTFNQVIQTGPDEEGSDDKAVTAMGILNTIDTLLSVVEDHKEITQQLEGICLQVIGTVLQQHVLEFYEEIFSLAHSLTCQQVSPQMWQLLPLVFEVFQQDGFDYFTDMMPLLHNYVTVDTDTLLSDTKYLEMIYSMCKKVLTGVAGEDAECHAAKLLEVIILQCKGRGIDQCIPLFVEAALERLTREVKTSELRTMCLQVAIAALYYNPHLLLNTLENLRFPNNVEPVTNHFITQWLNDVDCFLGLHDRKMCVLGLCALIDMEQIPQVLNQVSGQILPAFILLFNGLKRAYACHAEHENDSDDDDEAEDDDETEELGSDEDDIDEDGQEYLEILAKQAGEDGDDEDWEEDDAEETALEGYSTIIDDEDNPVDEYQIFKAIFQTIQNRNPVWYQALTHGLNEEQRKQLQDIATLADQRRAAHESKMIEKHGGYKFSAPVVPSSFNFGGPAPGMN
UniProt P10275: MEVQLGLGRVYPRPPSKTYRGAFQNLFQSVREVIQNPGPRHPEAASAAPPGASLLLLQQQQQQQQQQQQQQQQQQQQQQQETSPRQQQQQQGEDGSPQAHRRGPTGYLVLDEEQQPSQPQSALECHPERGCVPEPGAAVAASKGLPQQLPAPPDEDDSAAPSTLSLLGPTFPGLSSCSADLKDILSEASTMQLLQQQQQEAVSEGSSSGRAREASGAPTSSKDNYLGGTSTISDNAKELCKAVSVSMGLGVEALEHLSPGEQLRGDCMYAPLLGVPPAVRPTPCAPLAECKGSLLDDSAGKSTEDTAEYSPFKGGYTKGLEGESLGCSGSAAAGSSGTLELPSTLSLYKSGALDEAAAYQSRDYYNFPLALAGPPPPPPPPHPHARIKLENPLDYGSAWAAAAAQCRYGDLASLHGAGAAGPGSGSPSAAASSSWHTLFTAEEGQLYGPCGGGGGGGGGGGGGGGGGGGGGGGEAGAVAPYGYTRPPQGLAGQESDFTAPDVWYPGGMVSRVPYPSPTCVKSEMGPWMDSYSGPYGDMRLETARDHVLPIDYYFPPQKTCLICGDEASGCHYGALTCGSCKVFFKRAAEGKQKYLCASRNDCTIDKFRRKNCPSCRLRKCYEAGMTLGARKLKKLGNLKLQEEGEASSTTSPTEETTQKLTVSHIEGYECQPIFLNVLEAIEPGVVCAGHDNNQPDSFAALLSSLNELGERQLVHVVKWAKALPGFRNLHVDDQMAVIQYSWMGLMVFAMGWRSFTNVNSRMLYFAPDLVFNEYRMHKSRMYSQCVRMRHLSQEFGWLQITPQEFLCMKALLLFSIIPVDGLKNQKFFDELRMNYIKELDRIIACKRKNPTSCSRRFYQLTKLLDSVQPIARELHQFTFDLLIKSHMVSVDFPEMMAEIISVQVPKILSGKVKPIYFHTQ

| binding [1] | binding [2] | binding [3] | Molecule |
| --- | --- | --- | --- |
| binds | binds | – | androgen receptor (from UniProt P10275 1-920) |
| – | binds | binds | USP22 (enzyme, UniProt Q9UPT9 1-525) MVSRPEPEGEAMDAELAVAPPGCSHLGSFKVDNWKQNLRAIYQCFVWSGTAEARKRKAKSCICHVCGVHLNRLHSCLYCVFFGCFTKKHIHEHAKAKRHNLAIDLMYGGIYCFLCQDYIYDKDMEIIAKEEQRKAWKMQGVGEKFSTWEPTKRELELLKHNPKRRKITSNCTIGLRGLINLGNTCFMNCIVQALTHTPLLRDFFLSDRHRCEMQSPSSCLVCEMSSLFQEFYSGHRSPHIPYKLLHLVWTHARHLAGYEQQDAHEFLIAALDVLHRHCKGDDNGKKANNPNHCNCIIDQIFTGGLQSDVTCQVCHGVSTTIDPFWDISLDLPGSSTPFWPLSPGSEGNVVNGESHVSGTTTLTDCLRRFTRPEHLGSSAKIKCSGCHSYQESTKQLTMKKLPIVACFHLKRFEHSAKLRRKITTYVSFPLELDMTPFMASSKESRMNGQYQQPTDSLNNDNKYSLFAVVNHQGTLESGHYTSFIRQHKDQWFKCDDAIITKASIKDVLDSEGYLLFYHKQFLEYE |

Reference: article PMC10313651
